From PMC10427625, “Structural basis for negative regulation of the Escherichia coli maltose system” (Nature Communications, 2023) come the findings set out here.

Experiment [1] addresses T1, N-terminally GST-tagged MalY (Escherichia coli) (UniProt P23256).
T1 sequence: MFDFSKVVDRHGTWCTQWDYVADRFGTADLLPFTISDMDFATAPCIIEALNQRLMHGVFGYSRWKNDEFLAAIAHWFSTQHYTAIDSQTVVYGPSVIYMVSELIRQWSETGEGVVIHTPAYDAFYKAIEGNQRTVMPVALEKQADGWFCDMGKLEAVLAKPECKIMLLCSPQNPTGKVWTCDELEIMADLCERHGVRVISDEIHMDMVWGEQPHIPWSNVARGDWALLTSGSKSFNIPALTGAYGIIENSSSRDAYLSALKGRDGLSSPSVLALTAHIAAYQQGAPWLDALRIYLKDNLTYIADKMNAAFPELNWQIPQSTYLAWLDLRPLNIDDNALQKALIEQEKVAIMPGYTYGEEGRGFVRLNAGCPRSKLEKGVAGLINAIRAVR
Description: pull-down; GST-tagged MalY incubated with an excess of WT or mutant MalT on ice for 30 min, Glutathione Sepharose 4B, buffer TKCl with 0.1 mM ADP and 10 μM PLP; elution with 20 mM glutathione, SDS-PAGE, Coomassie; both purified.

Experiment [2] deals with MalT-R19A, N-terminally His-tagged (Escherichia coli) (UniProt P06993). Description: SEC; Superose 6 Increase 10/300 GL, 4 °C; MalT pre-incubated at 20 °C for 20 min in buffer I; run in buffer E with 1 mM maltotriose and 0.4 mM ATP; self-association of MalT; both purified. A general note: Size exclusion chromatography separates by hydrodynamic size, large species first.
Experiment [3] deals with MalT-K6A, N-terminally His-tagged (Escherichia coli) (UniProt P06993). The description is as above.

These are yes or no findings as the source states them, for the method shown. Where a sequence is shown, tags or fusion partners need not be part of it.

B1: MalT-R143A, N-terminally His-tagged (natural protein, Escherichia coli, UniProt P06993 1-901, looked up)
chain: MLIPSKLSRPVRLDHTVVRERLLAKLSGANNFRLALITSPAGYGKTTLISQWAAGKNDIGWYSLDEGDNQQERFASYLIAAVQQATNGHCAICETMAQKRQYASLTSLFAQLFIELAEWHSPLYLVIDDYHLITNPVIHESMAFFIRHQPENLTLVVLSRNLPQLGIANLRVRDQLLEIGSQQLAFTHQEAKQFFDCRLSSPIEAAESSRICDDVSGWATALQLIALSARQNTHSAHKSARRLAGINASHLSDYLVDEVLDNVDLATRHFLLKSAILRSMNDALITRVTGEENGQMRLEEIERQGLFLQRMDDTGEWFCYHPLFGNFLRQRCQWELAAELPEIHRAAAESWMAQGFPSEAIHHALAAGDALMLRDILLNHAWSLFNHSELSLLEESLKALPWDSLLENPQLVLLQAWLMQSQHRYGEVNTLLARAEHEIKDIREDTMHAEFNALRAQVAINDGNPDEAERLAKLALEELPPGWFYSRIVATSVLGEVLHCKGELTRSLALMQQTEQMARQHDVWHYALWSLIQQSEILFAQGFLQTAWETQEKAFQLINEQHLEQLPMHEFLVRIRAQLLWAWARLDEAEASARSGIEVLSSYQPQQQLQCLAMLIQCSLARGDLDNARSQLNRLENLLGNGKYHSDWISNANKVRVIYWQMTGDKAAAANWLRHTAKPEFANNHFLQGQWRNIARAQILLGEFEPAEIVLEELNENARSLRLMSDLNRNLLLLNQLYWQAGRKSDAQRVLLDALKLANRTGFISHFVIEGEAMAQQLRQLIQLNTLPELEQHRAQRILREINQHHRHKFAHFDENFVERLLNHPEVPELIRTSPLTQREWQVLGLIYSGYSNEQIAGELEVAATTIKTHIRNLYQKLGVAHRQDAVQHAQQLLKMMGYGV
notes: MalT of Escherichia coli, variant of plasmid pOM206 made by site-directed mutagenesis; source: E. coli BL21 (DE3) ΔmalT220, purified (Ni Sepharose, gel filtration)
In the case of B1, the binding entry in experiment [1] is given as “no binding”.

B2: MalT-R19A, N-terminally His-tagged (protein, UniProt P06993 1-901)
chain: MLIPSKLSRPVRLDHTVVAERLLAKLSGANNFRLALITSPAGYGKTTLISQWAAGKNDIGWYSLDEGDNQQERFASYLIAAVQQATNGHCAICETMAQKRQYASLTSLFAQLFIELAEWHSPLYLVIDDYHLITNPVIHESMRFFIRHQPENLTLVVLSRNLPQLGIANLRVRDQLLEIGSQQLAFTHQEAKQFFDCRLSSPIEAAESSRICDDVSGWATALQLIALSARQNTHSAHKSARRLAGINASHLSDYLVDEVLDNVDLATRHFLLKSAILRSMNDALITRVTGEENGQMRLEEIERQGLFLQRMDDTGEWFCYHPLFGNFLRQRCQWELAAELPEIHRAAAESWMAQGFPSEAIHHALAAGDALMLRDILLNHAWSLFNHSELSLLEESLKALPWDSLLENPQLVLLQAWLMQSQHRYGEVNTLLARAEHEIKDIREDTMHAEFNALRAQVAINDGNPDEAERLAKLALEELPPGWFYSRIVATSVLGEVLHCKGELTRSLALMQQTEQMARQHDVWHYALWSLIQQSEILFAQGFLQTAWETQEKAFQLINEQHLEQLPMHEFLVRIRAQLLWAWARLDEAEASARSGIEVLSSYQPQQQLQCLAMLIQCSLARGDLDNARSQLNRLENLLGNGKYHSDWISNANKVRVIYWQMTGDKAAAANWLRHTAKPEFANNHFLQGQWRNIARAQILLGEFEPAEIVLEELNENARSLRLMSDLNRNLLLLNQLYWQAGRKSDAQRVLLDALKLANRTGFISHFVIEGEAMAQQLRQLIQLNTLPELEQHRAQRILREINQHHRHKFAHFDENFVERLLNHPEVPELIRTSPLTQREWQVLGLIYSGYSNEQIAGELEVAATTIKTHIRNLYQKLGVAHRQDAVQHAQQLLKMMGYGV
Regarding B2, the binding result in experiment [2] is reported as “no binding”.

B3: MalT-R143A/R173A, N-terminally His-tagged (protein, UniProt P06993 1-901)
chain: MLIPSKLSRPVRLDHTVVRERLLAKLSGANNFRLALITSPAGYGKTTLISQWAAGKNDIGWYSLDEGDNQQERFASYLIAAVQQATNGHCAICETMAQKRQYASLTSLFAQLFIELAEWHSPLYLVIDDYHLITNPVIHESMAFFIRHQPENLTLVVLSRNLPQLGIANLRVADQLLEIGSQQLAFTHQEAKQFFDCRLSSPIEAAESSRICDDVSGWATALQLIALSARQNTHSAHKSARRLAGINASHLSDYLVDEVLDNVDLATRHFLLKSAILRSMNDALITRVTGEENGQMRLEEIERQGLFLQRMDDTGEWFCYHPLFGNFLRQRCQWELAAELPEIHRAAAESWMAQGFPSEAIHHALAAGDALMLRDILLNHAWSLFNHSELSLLEESLKALPWDSLLENPQLVLLQAWLMQSQHRYGEVNTLLARAEHEIKDIREDTMHAEFNALRAQVAINDGNPDEAERLAKLALEELPPGWFYSRIVATSVLGEVLHCKGELTRSLALMQQTEQMARQHDVWHYALWSLIQQSEILFAQGFLQTAWETQEKAFQLINEQHLEQLPMHEFLVRIRAQLLWAWARLDEAEASARSGIEVLSSYQPQQQLQCLAMLIQCSLARGDLDNARSQLNRLENLLGNGKYHSDWISNANKVRVIYWQMTGDKAAAANWLRHTAKPEFANNHFLQGQWRNIARAQILLGEFEPAEIVLEELNENARSLRLMSDLNRNLLLLNQLYWQAGRKSDAQRVLLDALKLANRTGFISHFVIEGEAMAQQLRQLIQLNTLPELEQHRAQRILREINQHHRHKFAHFDENFVERLLNHPEVPELIRTSPLTQREWQVLGLIYSGYSNEQIAGELEVAATTIKTHIRNLYQKLGVAHRQDAVQHAQQLLKMMGYGV
Take B3: in experiment [1], the binding entry is “no binding”.

B4: MalT-K6A, N-terminally His-tagged (protein, UniProt P06993 1-901)
chain: MLIPSALSRPVRLDHTVVRERLLAKLSGANNFRLALITSPAGYGKTTLISQWAAGKNDIGWYSLDEGDNQQERFASYLIAAVQQATNGHCAICETMAQKRQYASLTSLFAQLFIELAEWHSPLYLVIDDYHLITNPVIHESMRFFIRHQPENLTLVVLSRNLPQLGIANLRVRDQLLEIGSQQLAFTHQEAKQFFDCRLSSPIEAAESSRICDDVSGWATALQLIALSARQNTHSAHKSARRLAGINASHLSDYLVDEVLDNVDLATRHFLLKSAILRSMNDALITRVTGEENGQMRLEEIERQGLFLQRMDDTGEWFCYHPLFGNFLRQRCQWELAAELPEIHRAAAESWMAQGFPSEAIHHALAAGDALMLRDILLNHAWSLFNHSELSLLEESLKALPWDSLLENPQLVLLQAWLMQSQHRYGEVNTLLARAEHEIKDIREDTMHAEFNALRAQVAINDGNPDEAERLAKLALEELPPGWFYSRIVATSVLGEVLHCKGELTRSLALMQQTEQMARQHDVWHYALWSLIQQSEILFAQGFLQTAWETQEKAFQLINEQHLEQLPMHEFLVRIRAQLLWAWARLDEAEASARSGIEVLSSYQPQQQLQCLAMLIQCSLARGDLDNARSQLNRLENLLGNGKYHSDWISNANKVRVIYWQMTGDKAAAANWLRHTAKPEFANNHFLQGQWRNIARAQILLGEFEPAEIVLEELNENARSLRLMSDLNRNLLLLNQLYWQAGRKSDAQRVLLDALKLANRTGFISHFVIEGEAMAQQLRQLIQLNTLPELEQHRAQRILREINQHHRHKFAHFDENFVERLLNHPEVPELIRTSPLTQREWQVLGLIYSGYSNEQIAGELEVAATTIKTHIRNLYQKLGVAHRQDAVQHAQQLLKMMGYGV
With B4, the binding entry in experiment [3] is given as “no binding”.

B5: MalT-R173A, N-terminally His-tagged (natural protein, Escherichia coli, UniProt P06993 1-901, looked up)
chain: MLIPSKLSRPVRLDHTVVRERLLAKLSGANNFRLALITSPAGYGKTTLISQWAAGKNDIGWYSLDEGDNQQERFASYLIAAVQQATNGHCAICETMAQKRQYASLTSLFAQLFIELAEWHSPLYLVIDDYHLITNPVIHESMRFFIRHQPENLTLVVLSRNLPQLGIANLRVADQLLEIGSQQLAFTHQEAKQFFDCRLSSPIEAAESSRICDDVSGWATALQLIALSARQNTHSAHKSARRLAGINASHLSDYLVDEVLDNVDLATRHFLLKSAILRSMNDALITRVTGEENGQMRLEEIERQGLFLQRMDDTGEWFCYHPLFGNFLRQRCQWELAAELPEIHRAAAESWMAQGFPSEAIHHALAAGDALMLRDILLNHAWSLFNHSELSLLEESLKALPWDSLLENPQLVLLQAWLMQSQHRYGEVNTLLARAEHEIKDIREDTMHAEFNALRAQVAINDGNPDEAERLAKLALEELPPGWFYSRIVATSVLGEVLHCKGELTRSLALMQQTEQMARQHDVWHYALWSLIQQSEILFAQGFLQTAWETQEKAFQLINEQHLEQLPMHEFLVRIRAQLLWAWARLDEAEASARSGIEVLSSYQPQQQLQCLAMLIQCSLARGDLDNARSQLNRLENLLGNGKYHSDWISNANKVRVIYWQMTGDKAAAANWLRHTAKPEFANNHFLQGQWRNIARAQILLGEFEPAEIVLEELNENARSLRLMSDLNRNLLLLNQLYWQAGRKSDAQRVLLDALKLANRTGFISHFVIEGEAMAQQLRQLIQLNTLPELEQHRAQRILREINQHHRHKFAHFDENFVERLLNHPEVPELIRTSPLTQREWQVLGLIYSGYSNEQIAGELEVAATTIKTHIRNLYQKLGVAHRQDAVQHAQQLLKMMGYGV
notes: as for B1
Turning to B5, in experiment [1], the binding entry is listed as “no binding”.
